SMILES strings stand for the structures. The source gives many values for each of these; only a part stands here.

This data set in a line: M4N solubility in water miscible organic solvents up to 48 hours, RP-HPLC. It counts as physicochemical. Here is the method: To prepare M4N samples, 200 μL of 100 mg/mL M4N dissolved in acetone were placed in 1.5 mL polypropylene microtubes. The solvent was allowed to evaporate at room temperature for 48 hours until the samples were completely dry.
The water miscible organic solvent formulations were prepared in 15 mL polypropylene centrifuge tubes. 10 mL of each formulation was prepared. Each solvent was added on the basis of weight using its respective density at 25° C. Following brief mixing, each formulation was filtered through a 0.45 μm surfactant free cellulose acetate (“SFCA”) filter into a fresh 15 mL tube. Formulations were kept at room temperature until ready for use.
At each time point, the samples were centrifuged for 2 minutes at 13,000 rpm to pellet any solid M4N. As noted in Table 25, over half of the formulation conditions examined were able to solubilize M4N to a concentration of greater than 10 mg/Ml.

For the compound `COc1ccc(C[C@@H](C)[C@@H](C)Cc2ccc(OC)c(OC)c2)cc1OC` [Formulation M4N, meso-1,4-bis(3,4-dimethoxyphenyl)-2,3-dimethylbutane], the M4N solubility is 850 µg/mL (14% EtOH, 30% PG, 40% Glyc, 10% T80, 6% DMA, 2 hrs, room temperature); 9400 µg/mL (14% EtOH, 30% PG, 40% PEG300, 10% T80, 6% DMA, 2 hrs, room temperature); 580 µg/mL (18% EtOH, 30% PG, 40% Glyc, 10% T80, 2% Benz, 2 hrs, room temperature); 10670 µg/mL (24% EtOH, 30% PG, 30% PEG300, 10% T80, 6% DMA, 48 hrs, room temperature); 1900 µg/mL (44% EtOH, 50% Glycerol, 6% DMA, 24 hrs, room temperature); 4800 µg/mL (44% EtOH, 50% PG, 6% DMA, 2 hrs, room temperature). The same compound yielded an M4N solubility (44% EtOH, 50% T80, 6% DMA, 48 hrs, room temperature) of 23000 µg/mL; an M4N solubility (50% EtOH, 50% Glycerol, 48 hrs, room temperature) of 1600 µg/mL; an M4N solubility (50% EtOH, 50% PEG300, 2 hrs, room temperature) of 10940 µg/mL; an M4N solubility (50% EtOH, 50% T80, 48 hrs, room temperature) of 19680 µg/mL; an M4N solubility (50% PG, 50% Crem, 48 hrs, room temperature) of 7200 µg/mL; an M4N solubility (50% PG, 50% Glycerol, 2 hrs, room temperature) of 130 µg/mL. Moreover, the M4N solubility (50% PG, 50% Glycerol, 24 hrs, room temperature) is 480 µg/mL; the M4N solubility (50% PG, 50% Glycerol, 48 hrs, room temperature) turned out to be 510 µg/mL; the M4N solubility (50% PG, 50% PEG300, 48 hrs, room temperature) worked out at 5300 µg/mL; the M4N solubility (100% EtOH, 2 hrs, room temperature) was 7200 µg/mL; the M4N solubility entry (100% Glycerol, 2 hrs, room temperature, XXX: not detectable) was “XXX”; the M4N solubility (100% Glycerol, 24 hrs, room temperature) worked out at 80 µg/mL. Also, the M4N solubility result is, setting by setting: (100% Glycerol, 48 hrs, room temperature, XXX: not detectable) “XXX”; (100% PG, 2 hrs, room temperature) 1100 µg/mL. In addition, the “solubility of M4N” value is reported as “not detectable” (glycerol, 2 hours, room temperature); “not detectable” (glycerol, 48 hours, room temperature); “greater than 10 mg/mL” (more than 20 formulation conditions using water miscible organic solvents); “greater than 10 mg/Ml” (over half of the water miscible organic solvent formulation conditions examined).

The record behind these values is US20090022803A1, “Oral Formulations For Delivery of Catecholic Butanes Including Ndga Compounds” (priority 2005, published 2009).
